# PubChem BioAssay AID1259425, University of Nebraska Medical Center, 2018
# Aim: 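Seek colon cancer weak points whose silencing resembles KSR1 loss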 (primary screen)
# Cell system: HCT116 human colon cancer cells
# Knock-down reagent: siRNA pool against human genes, 50 nM siRNA
# Measured: 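After 50 nM siRNA pool, branched-DNA assay measures six marker transcripts per well, minus blank, normalised to the geometric mean of two housekeeping transcripts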
# Direction: BNIP3L mRNA: higher = more BNIP3L transcript after knockdown; NDRG1 mRNA: higher = more NDRG1 transcript after knockdown; BNIP3 mRNA: higher = more BNIP3 transcript after knockdown; ALDOC mRNA: higher = more ALDOC transcript after knockdown; ACSL5 mRNA: higher = more ACSL5 transcript after knockdown
# Shown is an unselected part of about 14,000 reagents tested. Not given: the time to read-out.
Gene,"BNIP3L mRNA, set 1","NDRG1 mRNA, set 1","BNIP3 mRNA, set 1","ALDOC mRNA, set 1","ACSL5 mRNA, set 1"
FGF1 (fibroblast growth factor 1),0.0991,0.15,0.301,0.0447,0.154
USP9Y (ubiquitin specific peptidase 9 Y-linked),0.115,0.115,0.273,0.0214,0.253
EN2 (engrailed homeobox 2),0.147,0.0896,0.334,0.00124,0.134
PRKACB (protein kinase cAMP-activated catalytic subunit beta),0.0918,0.147,0.328,0.0203,0.119
PSG6 (pregnancy specific beta-1-glycoprotein 6),0.116,0.214,0.355,0.0321,0.209
LTC4S (leukotriene C4 synthase),0.101,0.222,0.257,0.0197,0.139
"CDON (cell adhesion associated, oncogene regulated)",0.111,0.472,0.293,0.0236,0.375
IGFBP5 (insulin like growth factor binding protein 5),0.139,0.101,0.366,0.00814,0.166
IDE (insulin degrading enzyme),0.0989,0.128,0.202,0.0225,0.0809
"FOSL2 (FOS like 2, AP-1 transcription factor subunit)",0.0914,0.0877,0.248,0.00829,0.204
CBX4 (chromobox 4),0.0577,0.228,0.311,-0.0094,0.209
PRSS23 (serine protease 23),0.122,0.168,0.232,0.0297,0.145
BRD7 (bromodomain containing 7),0.0929,0.245,0.255,0.0121,0.169
PDLIM1 (PDZ and LIM domain 1),0.126,0.756,0.318,0.0258,0.358
TMEM39B (transmembrane protein 39B),0.121,0.222,0.332,0.0129,0.107
MT1L (metallothionein 1L (pseudogene)),0.0703,0.0939,0.315,0.0121,0.107
TMEM168 (transmembrane protein 168),0.0845,0.316,0.201,0.0178,0.22
SMAD9 (SMAD family member 9),0.132,0.102,0.279,0.0294,0.22
SPON1 (spondin 1),0.0545,0.389,0.493,0.0416,0.163
MCCC2 (methylcrotonyl-CoA carboxylase subunit 2),0.0978,0.0912,0.23,0.0168,0.114
ANKRD2 (ankyrin repeat domain 2),0.113,0.61,0.845,0.107,0.28
ACAD11 (acyl-CoA dehydrogenase family member 11),0.24,0.147,0.228,0.0609,0.16
ESRRB (estrogen related receptor beta),0.0877,0.163,0.263,0.0119,0.181
PPME1 (protein phosphatase methylesterase 1),0.07,0.189,0.211,0.0126,0.0907
UTP20 (UTP20 small subunit processome component),0.0826,0.105,0.297,0.0102,0.115
SZT2 (SZT2 subunit of KICSTOR complex),0.143,0.375,0.318,0.0279,0.333
RFX4 (regulatory factor X4),0.125,0.124,0.308,0.0163,0.171
TMEM131 (transmembrane protein 131),0.113,0.0978,0.257,0.00963,0.215
EFNB1 (ephrin B1),0.0632,0.226,0.25,0.0155,0.154
MRPL20 (mitochondrial ribosomal protein L20),0.164,0.0768,0.317,0.0336,0.0762
TGFBR3 (transforming growth factor beta receptor 3),0.0886,0.145,0.315,0.0366,0.0962
FZD10 (frizzled class receptor 10),0.103,0.141,0.148,0.0387,0.161
"COQ5 (coenzyme Q5, methyltransferase)",0.222,0.353,0.229,0.177,0.541

Part of the list above, reduced to “ALDOC mRNA, set 1”.
PRKACB (protein kinase cAMP-activated catalytic subunit beta)	0.0203
PSG6 (pregnancy specific beta-1-glycoprotein 6)	0.0321
LTC4S (leukotriene C4 synthase)	0.0197
CDON (cell adhesion associated, oncogene regulated)	0.0236
IGFBP5 (insulin like growth factor binding protein 5)	0.00814
IDE (insulin degrading enzyme)	0.0225
FOSL2 (FOS like 2, AP-1 transcription factor subunit)	0.00829

The list goes on.
Gene,"BNIP3L mRNA, set 1","NDRG1 mRNA, set 1","BNIP3 mRNA, set 1","ALDOC mRNA, set 1","ACSL5 mRNA, set 1"
SSX2 (SSX family member 2),0.0455,0.135,0.211,0.0512,0.144
SCAF8 (SR-related CTD associated factor 8),0.22,0.206,0.333,0.039,0.113
CSRP1 (cysteine and glycine rich protein 1),0.0858,0.16,0.235,0.0161,0.137
AMH (anti-Mullerian hormone),0.11,0.127,0.395,0.0142,0.0725
RSPRY1 (ring finger and SPRY domain containing 1),0.0673,0.174,0.213,0.0147,0.162
"HLA-DRA (major histocompatibility complex, class II, DR alpha)",0.078,0.115,0.288,0.0177,0.154
CIZ1 (CDKN1A interacting zinc finger protein 1),0.192,0.0364,0.315,0.0211,0.113
LIG3 (DNA ligase 3),0.072,0.0523,0.443,0.00844,0.104
ATP1A2 (ATPase Na+/K+ transporting subunit alpha 2),0.085,0.107,0.277,0.0293,0.153
CXCL10 (C-X-C motif chemokine ligand 10),0.104,0.0669,0.429,0.00697,0.125
CC2D2A (coiled-coil and C2 domain containing 2A),0.101,0.257,0.146,0.0628,0.194
HMGA1 (high mobility group AT-hook 1),0.121,0.292,0.301,0.0289,0.147
INHBB (inhibin subunit beta B),0.0765,0.379,0.259,0.0235,0.122
STEAP3 (STEAP3 metalloreductase),0.0875,0.125,0.312,0.0172,0.0567
CBX8 (chromobox 8),0.0599,0.0358,0.235,0.0159,0.0872
KRT14 (keratin 14),0.102,0.18,0.266,0.0429,0.17
COPS8 (COP9 signalosome subunit 8),0.167,0.383,0.23,0.0358,0.26
